Binding data for one molecule are collected here from PMC5472279, “Genetic, structural, and chemical insights into the dual function of GRASP55 in germ cell Golgi remodeling and JAM-C polarized localization during spermatogenesis” (PLoS Genetics, 2017).

Results are given in words; binding and its absence hold for the method and conditions named. In cells and extracts the contact can be indirect. A yes stands for co-enrichment or nearness to the bait. Other partners may have been found. A no says only that the protein was not detected with the bait.

The target in assay [1] is T1, Biotinylated JAM-A carboxy-terminal peptide lacking the three last amino acids.
T1 sequence (peptide, Biotin at the N-terminus): SQPSTRSEGEFKQTSS
Description: affinity purification with mass spectrometry; biotinylated peptides on streptavidin Sepharose beads; 1 mL mouse testis lysate (5 mg protein), 2 h; 50 mM HEPES pH 7.3, 10% glycerol, 0.1 mM EDTA, 150 mM NaCl, 1% Triton X100; LC-MSMS; only the target purified.

Assay [2] addresses T2, Biotinylated JAM-B carboxy-terminal peptide lacking the three last amino acids (mouse).
T2 sequence (peptide, Biotin at the N-terminus): SKVTTMSENDFKHTKS
The description is as above.

B1: ZO-2, endogenous in mouse testis (protein, UniProt Q9Z0U1 1-1167)
chain: MEEVIWEQYTVTLQKDSKRGFGIAVSGGRDNPHFENGETSIVISDVLPGGPADGLLQENDRVVMVNGTPMEDVLHSFAVQQLRKSGKIAAIVVKRPRKVQVAPLQGSPPLSHDDRGFEVIEEFDGRSFRSGYSERSRHSSHDMLSHSWEGNRERGRPHQRTQSRERERSRGRSLERGLDQEDYGRSRERSRGRSLERGLDRDFVSRDHSRGRSIDRDYDRDYERSYHEAYEPDYGGGYSPSYDRRAHPETRYERSRSREHLRSRSPSPESRSRHEHKGQHDPDRPIGVLLTKSKANEEYGLRLGSQIFIKEMTRTGLATKDGNLHEGDIILKINGTVTENMSLTDARKLIEKSRGKLQLVVLRDSKQTLINIPALNDSDSEVEDISEIESNRSFSPEERRQQYSDQDYHSSTEKLKERPSSREETSGRLSRMGATPTPFKSTGDITAAGVTEASREPRYQEEGPVPQPRTAPRVFLRPSPEDEAIYGPNTKMVRFKKGDSVGLRLAGGNDVGIFVAGIQEGTSAEQEGLQEGDQILKVNTQDFRGLVREDAVLYLLEIPKGETVTILAQSRADVYRDILACGRGDSFFIRSHFECEKETPQSLAFTRGEVFRVVDTLYDGKLGHWLAVRIGNELEKGLIPNKSRAEQMASVQNAQRENAGDRADFWRMRGQRSSGGVKKNLRKSREDLAAAVSVSTKFPAYEKVLLREAGFKRPVVLFGPIADIAMERLATELPDLFQTAKTEPKDAGSEKSSGVVRLNTVRQIIEQDKHALLDVTPKAVDLLNYTQWFPIVIFFNPDSRQGVKTIRQRLSPTSNKSSRKLFDQANKLKKTCSHLFTATINVNSANDGWFGSLKDSIQQQQNEAVWVSEGKMEGMDDDAEDRMSYLTAMGADYLSCDSRLISDFEDTDGEGGAYTDNELEEPAEEPLVSSITRSSEPVQHEENIRKSSPEPRAQMRRAASRDQLRDASPPPAFKPEPPKARSQNREDSFDYSKSNLPATAGSEIPGGSTKGYPPPIAAKPAFGRPILKPSTPVPMPESEEVGESTEEQEDAPRSVLGRVKIFEKMDHKAKLQRMQELQEAQNARIEIAQKHPDIYAVPIKAPKPDAGLPPHMSSRPPEPQKAPSRLYQDTRGSYGSDPEEEEYRQQLAAHSKRGYYSQPSRYRDTEL
B1: the binding entry in assay [1] and in assay [2] was “no binding” in each case.
